Test [1] deals with T1, human 5T4 antigen (human, UniProt Q13641 32-355, limits assumed).
T1 sequence: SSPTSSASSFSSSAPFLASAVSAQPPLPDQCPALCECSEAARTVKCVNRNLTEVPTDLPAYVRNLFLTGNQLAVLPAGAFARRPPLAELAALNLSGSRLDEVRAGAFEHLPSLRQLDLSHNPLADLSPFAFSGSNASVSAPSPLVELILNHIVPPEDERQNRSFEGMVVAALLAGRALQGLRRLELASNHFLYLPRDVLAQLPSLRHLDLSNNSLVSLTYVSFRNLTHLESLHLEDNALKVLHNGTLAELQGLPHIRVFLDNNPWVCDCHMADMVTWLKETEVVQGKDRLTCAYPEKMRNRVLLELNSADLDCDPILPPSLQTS
The test can be described thus: BIACORE; CM5 chip with bound human 5T4 antigen.

The target of test [2] is T1, human 5T4 antigen. Kind of test: ELISA; 5T4 ectodomain Fc constructs and 5T4 chimeras.
The target in test [3] is T1, human 5T4 antigen. The test can be described thus: BIACORE (SPR); human 5T4 antigen immobilized on CM5 chip. (SPR reads the build-up and loss of mass on a sensor chip optically.)

Results are given in words; binding and its absence hold for the method and conditions named. Some results given as binding are weak or reduced against the parent protein; the word gives no strength.

B1: murine anti-5T4 antibody A2 (antibody, V domains shown)
VH: QVQLQQSRPELVKPGASVKMSCKASGYTFTDYVISWVKQRTGQGLEWIGEIYPGSNSIYYNEKFKGRATLTADKSSSTAYMQLSSLTSEDSAVYFCAMGGNYGFDYWGQGTTLTVSS
VL: QIVLTQSPAIMSASLGERVTLTCTASSSVNSNYLHWYQQKPGSSPKLWIYSTSNLASGVPARFSGSGSGTSYSLTISSMEAEDAATYYCHQYHRSPLTFGAGTKLELK
notes: also called muA2
For the molecule B1, the binding result with human 5T4 antigen [1], with human 5T4 antigen [2] and with human 5T4 antigen [3] was “binds” each time.

B2: chimeric A2 antibody (antibody, human IgG4, V domains shown)
VH: QVQLQQSRPELVKPGASVKMSCKASGYTFTDYVISWVKQRTGQGLEWIGEIYPGSNSIYYNEKFKGRATLTADKSSSTAYMQLSSLTSEDSAVYFCAMGGNYGFDYWGQGTTLTVSS
VL: QIVLTQSPAIMSASLGERVTLTCTASSSVNSNYLHWYQQKPGSSPKLWIYSTSNLASGVPARFSGSGSGTSYSLTISSMEAEDAATYYCHQYHRSPLTFGAGTKLELK
notes: also called ChiA2; ChiA2 γ4
Consider B2, for which the binding entry with human 5T4 antigen [3] was “binds”.

The values above are taken from US20160185859A1 (Pfizer, published 2016).
